# The list is a part of this screen's results and no random one: it gathers some chemical classes. Other doses and runs of a compound may be missing. T/C is the treated group as % of the vehicle group. Some entries give survivors of the animals treated and no T/C: the source files T/C as zero there, which appears to mark a toxic dose or a test without result, not a measured value. Some survivor counts are full or nearly so, which does not show that the dose was tolerated: survival well below the control is almost never listed, so the zero probably covers shortened survival too. Counts of survivors are from the toxicity check (mostly the fifth day) where no day follows; animals may have died later. Schedule codes are those of the source, read here as Q, the interval in days (D) or hours (H), X, the number of doses. Where survival is the endpoint, this PubChem deposit counts one and a half times the control or more as active, and values a quarter to a half above the control carry no call in these data; other NCI protocols may use other cut-offs. Some T/C values carry the count of animals alive at the toxicity check (mostly the fifth day); where neither a count nor a note follows, no animal had died by that day. Some doses were run more than once; the results are listed from low to high. Some T/C values are marked as having no survivor count here; that says nothing about deaths at the dose.
# Tested on: BDF1 mice, P388 leukemia ip, median survival T/C
# Test: NCI In Vivo Anticancer Drug Screen. Data for tumor model P388 Leukemia (intraperitoneal) in B6D2F1 (BDF1) mice
# Conditions: T/C endpoint: median survival time, higher T/C = longer survival
# Method in brief: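 Survival ratio, drug arm over vehicle arm, in mice with a transplanted tumour.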
# [1] = dose: 6.25 mg/kg/injection, schedule: Q01DX009 (ip), vehicle: saline with Tween-80
# [2] = dose: 12.5 mg/kg/injection, schedule: Q01DX009 (ip), vehicle: saline with Tween-80
# [3] = dose: 25.0 mg/kg/injection, schedule: Q01DX009 (ip), vehicle: saline with Tween-80
# [4] = dose: 25.0 mg/kg/injection, schedule: Q04DX003 (ip), vehicle: saline with Tween-80
# [5] = dose: 100.0 mg/kg/injection, schedule: Q04DX003 (ip), vehicle: saline with Tween-80
# [6] = dose: 200.0 mg/kg/injection, schedule: Q04DX003 (ip), vehicle: saline with Tween-80
# [7] = dose: 1.0 mg/kg/injection, schedule: Q01DX009 (ip), vehicle: saline
# [8] = dose: 1.5 mg/kg/injection, schedule: Q01DX009 (ip), vehicle: saline
# [9] = dose: 2.25 mg/kg/injection, schedule: Q01DX009 (ip), vehicle: saline
# [10] = dose: 50.0 mg/kg/injection, schedule: Q01DX009 (ip), vehicle: saline with Tween-80
# [11] = dose: 100.0 mg/kg/injection, schedule: Q01DX009 (ip), vehicle: saline with Tween-80
compound,measurement,setting,value
NC(=O)CCCc1ccc(N(CCCl)CCCl)cc1,T/C,"dose: 0.37 mg/kg/injection, schedule: Q01DX009 (ip), vehicle: saline with Tween-80",92 % of control [5 of 6 alive]
same,T/C,"dose: 0.75 mg/kg/injection, schedule: Q01DX009 (ip), vehicle: saline with Tween-80",115 % of control
same,T/C,"dose: 0.92 mg/kg/injection, schedule: Q04DX003 (ip), vehicle: saline with Tween-80",90 % of control
same,T/C,"dose: 1.3 mg/kg/injection, schedule: Q04DX003 (ip), vehicle: saline with Tween-80",90 % of control
same,T/C,"dose: 1.5 mg/kg/injection, schedule: Q01DX009 (ip), vehicle: saline with Tween-80",123 and 145 % of control
same,T/C,"dose: 2.0 mg/kg/injection, schedule: Q04DX003 (ip), vehicle: saline with Tween-80",104 % of control
same,T/C,"dose: 3.0 mg/kg/injection, schedule: Q01DX009 (ip), vehicle: saline with Tween-80",154 % of control
same,T/C,"dose: 3.0 mg/kg/injection, schedule: Q04DX003 (ip), vehicle: saline with Tween-80",116 % of control
same,T/C,"dose: 4.4 mg/kg/injection, schedule: Q04DX003 (ip), vehicle: saline with Tween-80",125 and 150 % of control
same,T/C,"dose: 4.8 mg/kg/injection, schedule: Q04DX003 (ip), vehicle: saline with Tween-80",186 % of control
same,T/C,"dose: 6.0 mg/kg/injection, schedule: Q01DX009 (ip), vehicle: saline with Tween-80",250 % of control
same,T/C,[1],203 % of control
same,T/C,"dose: 6.7 mg/kg/injection, schedule: Q04DX003 (ip), vehicle: saline with Tween-80",172 % of control
same,T/C,"dose: 7.2 mg/kg/injection, schedule: Q04DX003 (ip), vehicle: saline with Tween-80",186 % of control
same,T/C,"dose: 10.0 mg/kg/injection, schedule: Q04DX003 (ip), vehicle: saline with Tween-80",222 % of control
same,T/C,"dose: 11.0 mg/kg/injection, schedule: Q04DX003 (ip), vehicle: saline with Tween-80",200 and 209 % of control
same,T/C,[2],176 % of control
same,T/C,"dose: 16.0 mg/kg/injection, schedule: Q04DX003 (ip), vehicle: saline with Tween-80",245 % of control
same,T/C,"dose: 16.5 mg/kg/injection, schedule: Q04DX003 (ip), vehicle: saline with Tween-80",233 % of control
same,survivor count,[3],5 of 6
same,T/C,[4],168 % of control
same,survivor count,[4],6 of 6
same,T/C,"dose: 35.0 mg/kg/injection, schedule: Q04DX003 (ip), vehicle: saline with Tween-80",222 % of control
same,survivor count,"dose: 37.5 mg/kg/injection, schedule: Q04DX003 (ip), vehicle: saline with Tween-80",6 of 6
Nc1ncnc2sc(SCCCl)nc12,T/C,"dose: 50.0 mg/kg/injection, schedule: Q04DX003 (ip), vehicle: saline with Tween-80",104 % of control
same,T/C,[5],104 % of control
same,survivor count,[6],6 of 6
OCCF,T/C,"dose: 0.75 mg/kg/injection, schedule: Q01DX009 (ip), vehicle: saline",115 % of control
same,T/C,[7],105 % of control
same,survivor count,[7],1 of 6
same,T/C,[8],110 and 150 % of control
same,survivor count,[8],1 of 6
same,T/C,"dose: 1.5 mg/kg/injection, schedule: Q04DX003 (ip), vehicle: saline",118 % of control
same,T/C,[9],115 % of control
same,survivor count,[9],0 of 6
same,survivor count,"dose: 3.0 mg/kg/injection, schedule: Q01DX009 (ip), vehicle: saline",0 of 6
same,T/C,"dose: 3.0 mg/kg/injection, schedule: Q04DX003 (ip), vehicle: saline",118 % of control
same,survivor count,"dose: 6.0 mg/kg/injection, schedule: Q04DX003 (ip), vehicle: saline",3 of 6
CN[N+](=O)[O-],T/C,"dose: 12.5 mg/kg/injection, schedule: Q01DX001 (ip), vehicle: saline with Tween-80",107 % of control [survivor count not shown]
same,T/C,"dose: 25.0 mg/kg/injection, schedule: Q01DX001 (ip), vehicle: saline with Tween-80",110 % of control [survivor count not shown]
same,T/C,"dose: 50.0 mg/kg/injection, schedule: Q01DX001 (ip), vehicle: saline with Tween-80",136 % of control [survivor count not shown]
NNC(=O)NP(=O)(NC(=O)NN)NC(=O)NN,T/C,[3],100 % of control
same,T/C,[10],110 % of control
same,T/C,[11],117 % of control
same,survivor count,"dose: 200.0 mg/kg/injection, schedule: Q01DX009 (ip), vehicle: saline with Tween-80",4 of 6
COc1ccc(O)c2c(=O)c3c(OC)cc4c(c3oc12)[C@@H]1C=CO[C@@H]1O4,T/C,[1],156 % of control
same,T/C,[2],186 % of control
same,T/C,[3],199 % of control
same,T/C,[10],245 % of control
same,T/C,[11],100 % of control
O=P(Nc1ccccn1)(N1CC1)N1CC1,T/C,"dose: 1.1 mg/kg/injection, schedule: Q01DX009 (ip), vehicle: Klucel (hydroxypropylcellulose) (HPC)",109 % of control [5 of 6 alive]
same,T/C,"dose: 1.7 mg/kg/injection, schedule: Q01DX009 (ip), vehicle: Klucel (hydroxypropylcellulose) (HPC)",122 % of control
same,T/C,"dose: 2.5 mg/kg/injection, schedule: Q01DX009 (ip), vehicle: Klucel (hydroxypropylcellulose) (HPC)",136 % of control
same,T/C,"dose: 2.6 mg/kg/injection, schedule: Q01DX009 (ip), vehicle: Klucel (hydroxypropylcellulose) (HPC)",135 % of control
same,T/C,"dose: 3.1 mg/kg/injection, schedule: Q04DX003 (ip), vehicle: Klucel (hydroxypropylcellulose) (HPC)",145 % of control
same,T/C,"dose: 4.0 mg/kg/injection, schedule: Q01DX009 (ip), vehicle: Klucel (hydroxypropylcellulose) (HPC)",185 % of control
same,T/C,"dose: 4.7 mg/kg/injection, schedule: Q04DX003 (ip), vehicle: Klucel (hydroxypropylcellulose) (HPC)",154 % of control [5 of 6 alive]
same,T/C,"dose: 5.0 mg/kg/injection, schedule: Q01DX009 (ip), vehicle: Klucel (hydroxypropylcellulose) (HPC)",125 % of control
same,T/C,"dose: 6.1 mg/kg/injection, schedule: Q01DX009 (ip), vehicle: Klucel (hydroxypropylcellulose) (HPC)",220 % of control
same,T/C,"dose: 7.2 mg/kg/injection, schedule: Q04DX003 (ip), vehicle: Klucel (hydroxypropylcellulose) (HPC)",154 % of control
same,T/C,"dose: 9.37 mg/kg/injection, schedule: Q01DX009 (ip), vehicle: Klucel (hydroxypropylcellulose) (HPC)",204 and 272 % of control
same,T/C,"dose: 10.0 mg/kg/injection, schedule: Q01DX009 (ip), vehicle: Klucel (hydroxypropylcellulose) (HPC)",153 % of control [5 of 6 alive]
same,T/C,"dose: 10.0 mg/kg/injection, schedule: Q04DX003 (ip), vehicle: Klucel (hydroxypropylcellulose) (HPC)",168 % of control
same,survivor count,"dose: 14.0 mg/kg/injection, schedule: Q01DX009 (ip), vehicle: Klucel (hydroxypropylcellulose) (HPC)",5 of 6
same,T/C,"dose: 16.5 mg/kg/injection, schedule: Q04DX003 (ip), vehicle: Klucel (hydroxypropylcellulose) (HPC)",200 and 268 % of control
same,survivor count,"dose: 18.75 mg/kg/injection, schedule: Q01DX009 (ip), vehicle: Klucel (hydroxypropylcellulose) (HPC)",6 of 6
same,T/C,"dose: 25.0 mg/kg/injection, schedule: Q04DX003 (ip), vehicle: Klucel (hydroxypropylcellulose) (HPC)",95 and 272 % of control
same,T/C,"dose: 25.0 mg/kg/injection, schedule: Q04DX003 (ip), vehicle: saline",300 % of control
same,survivor count,"dose: 37.5 mg/kg/injection, schedule: Q01DX009 (ip), vehicle: Klucel (hydroxypropylcellulose) (HPC)",4 of 6
same,T/C,"dose: 37.5 mg/kg/injection, schedule: Q04DX003 (ip), vehicle: Klucel (hydroxypropylcellulose) (HPC)",95 and 95 % of control [5 of 6 alive]
same,survivor count,"dose: 50.0 mg/kg/injection, schedule: Q04DX003 (ip), vehicle: saline",5 of 6
same,survivor count,"dose: 100.0 mg/kg/injection, schedule: Q04DX003 (ip), vehicle: saline",1 of 6
O=P(Cl)(Nc1ccccc1)Nc1ccccc1,T/C,[5],100 % of control
same,T/C,[6],122 % of control
same,T/C,"dose: 400.0 mg/kg/injection, schedule: Q04DX003 (ip), vehicle: saline with Tween-80",100 % of control
